PMC8865655
No constants are given. Whether binding was seen depends on the method and setting. In cells and extracts the contact can be indirect. Some results given as binding are weak or reduced against the parent protein; the word gives no strength.

The chains behind the UniProt entries cited, without tags or fusion partners. Where a name states a change or a piece, a line headed by the entry shows the natural chain unless it says otherwise.
UniProt Q86U44: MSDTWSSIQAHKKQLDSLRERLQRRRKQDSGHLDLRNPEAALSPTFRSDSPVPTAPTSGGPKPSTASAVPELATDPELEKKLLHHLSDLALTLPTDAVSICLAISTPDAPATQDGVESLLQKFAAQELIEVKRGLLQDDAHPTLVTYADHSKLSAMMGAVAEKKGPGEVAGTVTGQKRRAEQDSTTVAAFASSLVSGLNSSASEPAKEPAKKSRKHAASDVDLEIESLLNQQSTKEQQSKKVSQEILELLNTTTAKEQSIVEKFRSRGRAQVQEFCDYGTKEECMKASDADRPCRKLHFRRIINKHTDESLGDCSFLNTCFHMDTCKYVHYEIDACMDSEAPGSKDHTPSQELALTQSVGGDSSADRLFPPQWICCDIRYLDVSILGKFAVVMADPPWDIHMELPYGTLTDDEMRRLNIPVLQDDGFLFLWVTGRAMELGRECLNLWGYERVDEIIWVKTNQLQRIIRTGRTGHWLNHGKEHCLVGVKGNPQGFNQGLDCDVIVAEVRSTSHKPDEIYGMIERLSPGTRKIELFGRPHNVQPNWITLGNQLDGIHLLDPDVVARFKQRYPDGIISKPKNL

Assays:
[1] = target: FLAG-METTL3 N549A/Q550A (UniProt Q86U44); experiment: co-IP; transfected HEK293T co-expressing the two tagged proteins; lysis in 50 mM Tris-HCl pH 7.5, 150 mM NaCl, 0.5% Triton X-100, 1 mM EDTA; Anti-DYKDDDDK magnetic agarose, 5 washes; immunoblot
[2] = target: FLAG-METTL3 D395A (UniProt Q86U44); experiment: as above

binding [1]: binds | binding [2]: binds
Substance: Cry2-mCh-METTL3 (wild type, full-length construct) (from UniProt Q86U44 1-580)
